# Source: PubChem BioAssay AID817 (Emory University Molecular Libraries Screening Center, 2007)
# Some of the results follow.
# Test: growth rescue of sdo1-depleted yeast, primary screen, S. cerevisiae, bone marrow failure model (AID 817);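 also: z-score against mean and SD of all compound wells on the same plate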
# Conditions: S. cerevisiae sdo1-depleted JHY4D growth rescue, OD600; measured here: growth rescue at 24 h; at 10 µM; stronger effect = higher value; pdr5 snq2 efflux-pump mutant strain
row,SMILES,z-score
1,CCc1nc2c(n1)c1c(non1O)c1c2no[n+]1[O-],-1.03
2,CP(=O)(Oc1ccccc1)N1CCOC1=O (configuration not stated),0.83
3,O=[N+]([O-])c1cccc2n[nH]nc12,-0.71
4,CC(=O)N1C2C3N(C(C)=O)C1C1N(C(C)=O)C(C(N1C(C)=O)N3C(C)=O)N2C(C)=O,0.93
5,COc1ccc(OP(C)(=O)Nc2ccc(Br)cc2)cc1 (configuration not stated),0.61
6,CCN(CC)CC(O)COC(=O)C(O)(c1ccccc1)C1CCCCC1 (configuration not stated),2.04
7,CC1CCN(C(=O)Oc2c(Cl)cc(Cl)c3cccnc23)CC1,-0.91
8,CN(C)C(=O)OCCc1n(C)cc[n+]1C,-0.01
9,CP(=O)(Nc1ccc(Cl)cc1)Oc1ccc(F)cc1 (configuration not stated),0.6
10,CC(C)(C)c1ccc(OP(C)(=O)O)cc1,1.08
11,CP(=O)(OC12CC3CC(CC(C3)C1)C2)OC12CC3CC(CC(C3)C1)C2,-0.04
12,CCOC(=O)c1ccc(NP(C)(=O)Oc2ccc(Cl)cc2)cc1 (configuration not stated),-2.39
13,COc1ccc(OP(C)(=O)Nc2ccccc2Br)cc1 (configuration not stated),-0.52
14,COc1ccccc1OP(C)(=O)Nc1ccc(C)c(C)c1 (configuration not stated),0.14
15,CCOP(=O)(Nc1ccccc1)OCC,0.25
16,Cc1cc(SC(NC(=O)c2ccc(F)cc2)C(Cl)(Cl)Cl)ncn1 (configuration not stated),0.02
17,CCN(N=Nc1nonc1N)c1nonc1N,-0.09
18,Cc1nc2ccc3ccccc3c2o1.O=[N+]([O-])c1cc([N+](=O)[O-])c(O)c([N+](=O)[O-])c1,-0.3
19,CN(C)CCOC(=O)C(O)(c1ccccc1)C1CCCC1 (configuration not stated),0.6
20,CN1CCCC(OC(=O)C(c2ccccc2)c2ccccc2)C1 (configuration not stated),1.14
21,COc1ccc(OP(C)(=O)Nc2ccccn2)cc1 (configuration not stated),-0.1
22,CCc1ccc(OP(C)(=O)O)cc1,-0.04
23,COc1ccccc1OP(C)(=O)Nc1ccc(C)cc1C (configuration not stated),0.28
24,CP(=O)(Nc1ccccn1)Oc1ccccc1 (configuration not stated),1.7
25,Cc1c2non([O-])c-2c(C)[n+](=O)[n+]1[O-],-0.12

row,SMILES,z-score
1,O=C(NC(Sc1ccncn1)C(Cl)(Cl)Cl)c1ccccc1 (configuration not stated),1.34
2,Oc1ccccc1CNc1ccccn1,0.56
3,CC(C)CC(=O)NC(Sc1ccc(Cl)cc1)C(Cl)(Cl)Cl (configuration not stated),0.82
4,Cc1c(NP(C)(=O)Oc2ccc(C(C)C)cc2)c(=O)n(-c2ccccc2)n1C (configuration not stated),-0.09
5,CC(C)c1ccc(OP(C)(=O)Nc2ccc(SC(F)(F)F)cc2)cc1 (configuration not stated),-0.07
6,CP(=O)(Nc1ccccc1F)Oc1ccccc1 (configuration not stated),1.48
7,O=P1(Nc2nc3ccc(Cl)cc3s2)COc2ccccc2O1 (configuration not stated),0.73
8,O=C(OCCN1CCN(CCOCc2ccccc2)CC1)C(O)(c1ccccc1)c1ccccc1,0.23
9,CCOC(=O)c1ccc(NP(C)(=O)Oc2ccc(F)cc2)cc1 (configuration not stated),-0.34
10,CCOC(=O)NC(Sc1ccccc1)C(Cl)(Cl)Cl (configuration not stated),-0.06
11,CP(=O)(Nc1ccccc1)Oc1ccc(F)cc1 (configuration not stated),-0.65
12,CCN(CC)CCCOC(=O)C(O)(c1ccccc1)C1CCCCC1 (configuration not stated),-0.11
13,CCC(=O)N1C2C3N(C(=O)CC)C1C1N(C(=O)CC)C(C(N1C(=O)CC)N3C(=O)CC)N2C(=O)CC,-2.05
14,CC(=O)NC(SC(=S)N(CC(C)C)CC(C)C)C(Cl)(Cl)Cl (configuration not stated),0.37
15,COC(=O)c1cc2c(s1)N=C(c1ccccc1)N(C)P2(=O)N1CCOCC1 (configuration not stated),-0.35
16,CN(C)CCOC(=O)C(O)(c1ccccc1)C1CCCCC1 (configuration not stated),0.44
17,COc1ccc(OP(C)(=O)Nc2cccc(Br)c2)cc1 (configuration not stated),-0.56
18,O=C(OC1CN2CCC1CC2)c1cccc(Cl)c1 (configuration not stated),-0.32
19,C(Cc1nn[nH]n1)Cc1nn[nH]n1,-0.41
20,CC(=O)NC(SC(=S)N(C)C)C(Cl)(Cl)Cl (configuration not stated),-1
21,c1nnnn1CCn1cnnn1,-0.5
22,CCOP(C)(=S)SCC(=O)NC(C)(CC)C(=O)O (configuration not stated),0.58
23,CC(C)C(=O)NC(Sc1ccccc1)C(Cl)(Cl)Cl (configuration not stated),-0.62
24,O=P(Nc1nccs1)(c1ccccc1)c1ccccc1,-0.02
25,Cc1ccccc1NP(C)(=O)Nc1ccccc1C,-0.27

row,SMILES,z-score
1,CP(=O)(Nc1ccc2c(c1)OCCO2)Oc1ccccc1 (configuration not stated),-0.78
2,Clc1n[nH]nc1-c1nn[nH][15n]1,-0.96
3,O=P1(Nc2ccccn2)COc2ccccc2OC1,1.63
4,Cc1nc2ccc3ccccc3c2s1.O=[N+]([O-])c1cc([N+](=O)[O-])c(O)c([N+](=O)[O-])c1,-1.4
5,Cc1nn(-c2ccccc2)c2c1P(=O)(N1CCOCC1)N(C)C(c1ccccc1)=N2 (configuration not stated),0.04
6,COc1cc(C2NCCC3(OCCO3)C2(C)C)cc(OC)c1OC.O=[N+]([O-])c1cc([N+](=O)[O-])c(O)c([N+](=O)[O-])c1 (configuration not stated),1.01
7,CP(=O)(Nc1ccc(SC(F)(F)F)cc1)Oc1ccccc1 (configuration not stated),-0.65
8,O=P1(Nc2ccc(Br)cn2)COc2ccccc2OC1,-0.88
9,Cc1ccc(OCC(=O)OC2CN3CCC2CC3)cc1 (configuration not stated),-0.42
10,O=P1(Nc2ncccn2)COc2ccccc2OC1,0.11
11,COc1ccccc1OP(C)(=O)Nc1c(C)cccc1C (configuration not stated),0.63
12,CN1CCCCC1COC(=O)C1(O)c2ccccc2CCc2ccccc21 (configuration not stated),0.22
13,O=P(Nc1nccs1)(c1ccccc1)c1nc2ccccc2s1 (configuration not stated),-1.17
14,CCOP1(=S)c2c(C)nn(CCC#N)c2N=C(c2ccccc2F)N1C (configuration not stated),0.35
15,CCOP1(=S)c2c(C)nn(CCC#N)c2N=C(c2ccc(F)cc2)N1C (configuration not stated),0.71
16,CC1=NCCc2c1[nH]c1ccccc21.O=[N+]([O-])c1cc([N+](=O)[O-])c(O)c([N+](=O)[O-])c1,0.54
17,O=[N+]([O-])c1ccc2c(c1)nnn2O,0.94
18,Cc1cc(C)cc(OP(C)(=O)Nc2ccc(C)cc2C)c1 (configuration not stated),-0.4
19,Cc1cccc(OCC(=O)OC2CN3CCC2CC3)c1 (configuration not stated),-0.72
20,CCOC(=O)c1ccc(NP(C)(=O)Oc2cc(C)cc(C)c2)cc1 (configuration not stated),0.22
21,CCOP(=O)(Nc1cccc2ccccc12)OCC,-0.45
22,Cc1ccc(NCCc2c([N+](=O)[O-])cc([N+](=O)[O-])cc2[N+](=O)[O-])cc1,-0.32
23,Cc1cc(C)cc(OP(C)(=O)Nc2ccccn2)c1 (configuration not stated),-0.47
24,Cc1ccc(C)c(NP(C)(=O)Oc2ccccc2)c1 (configuration not stated),-0.67
25,Cc1c2c(nc3ccccc13)SC(C(Cl)Cl)C2 (configuration not stated),-1.49

row,SMILES,z-score
1,O=C(OC1CN2CCC1CC2)C12CC3CC(CC(C3)C1)C2 (configuration not stated),-1.44
2,CC(C)(C)c1ccc(OP(C)(=O)Nc2ccc(SC(F)(F)F)cc2)cc1 (configuration not stated),-0.68
3,Cc1ccc2nc3c(c(C)c2c1)CC(C(Cl)Cl)S3 (configuration not stated),-1.02
4,O=[N+]([O-])c1cc([N+](=O)[O-])c(-c2ccn[nH]2)s1,-1.99
5,COc1ccc(OP(C)(=O)Nc2cccc(F)c2)cc1 (configuration not stated),-0.27
6,CCN(CC)C(=S)SC(NC=O)C(Cl)(Cl)Cl (configuration not stated),-0.77
7,ClCCSc1nnc(-c2cccnc2)o1,2.86
8,CCOC(=O)c1ccc(NP(C)(=O)Oc2ccccc2)cc1 (configuration not stated),-0.27
9,Cc1ccc(NP(C)(=O)Oc2ccccc2)c(C)c1 (configuration not stated),1.25
10,COc1ccccc1OP(C)(=O)Nc1ccc(C)cc1 (configuration not stated),0.84
11,Cc1cc(SC(NC(=O)c2ccccc2)C(Cl)(Cl)Cl)nc(C(C)C)n1 (configuration not stated),-0.61
12,CP(=O)(Nc1ccccc1Br)Oc1ccccc1 (configuration not stated),-0.36
13,CP(=S)(Nn1cnnc1)Oc1ccccc1 (configuration not stated),0.88
14,Cc1cc(C)cc(OP(C)(=O)Nc2ccc(SC(F)(F)F)cc2)c1 (configuration not stated),-0.21
15,O=C(COc1ccccc1)OC1CN2CCC1CC2 (configuration not stated),0.02
16,CP(=O)(NC(=O)Nc1ccccc1)Oc1ccccc1 (configuration not stated),-0.2
17,Cc1cccc(C)c1OP(C)(=O)Nc1ccc(SC(F)(F)F)cc1 (configuration not stated),-1.55
18,COP1(=S)c2c(C)nn(CCC#N)c2N=C(c2ccc(F)cc2)N1C (configuration not stated),0.1
19,CCC(C)N(CC(C)C)C(=S)SC(NC(C)=O)C(Cl)(Cl)Cl (configuration not stated),-1.66
20,CP(=O)(Nc1ccccn1)Oc1ccc(Cl)cc1 (configuration not stated),-0.43
21,CCOP(C)(=S)SCC(=O)NC(C)C(=O)O (configuration not stated),-0.01
22,CCOC(=O)c1ccc(NP(C)(=O)Oc2ccc(OC)cc2)cc1 (configuration not stated),-1.57
